Results on 35 targets are retold here after the supplement of paper PMC12819154, “High-throughput peptide-centric local stability assay extends protein–ligand identification to membrane proteins, tissues and bacteria” (Nature Structural & Molecular Biology, 2025).

Amino acid sequences for entries named in this document (tags omitted). A change or cut given only in a name is not applied to a line headed by its entry.
UniProt P08200: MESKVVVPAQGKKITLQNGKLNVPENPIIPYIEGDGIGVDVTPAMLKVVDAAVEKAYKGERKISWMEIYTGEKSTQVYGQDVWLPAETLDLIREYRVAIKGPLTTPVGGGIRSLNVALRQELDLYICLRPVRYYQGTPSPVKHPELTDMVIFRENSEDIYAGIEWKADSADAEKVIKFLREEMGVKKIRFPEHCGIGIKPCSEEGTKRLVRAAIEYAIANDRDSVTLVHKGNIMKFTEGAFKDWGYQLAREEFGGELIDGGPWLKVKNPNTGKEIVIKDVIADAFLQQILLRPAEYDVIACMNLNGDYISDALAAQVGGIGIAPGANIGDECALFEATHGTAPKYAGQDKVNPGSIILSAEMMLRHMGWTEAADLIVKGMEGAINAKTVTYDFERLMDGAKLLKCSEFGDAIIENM
UniProt P06999: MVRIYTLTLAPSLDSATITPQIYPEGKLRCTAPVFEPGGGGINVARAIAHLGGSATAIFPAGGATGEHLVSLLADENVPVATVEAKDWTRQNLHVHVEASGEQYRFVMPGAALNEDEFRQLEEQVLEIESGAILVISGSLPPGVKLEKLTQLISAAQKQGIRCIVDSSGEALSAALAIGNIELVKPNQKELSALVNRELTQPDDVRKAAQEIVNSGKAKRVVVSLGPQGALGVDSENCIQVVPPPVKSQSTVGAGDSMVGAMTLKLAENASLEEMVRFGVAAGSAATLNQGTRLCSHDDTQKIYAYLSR
UniProt P03018: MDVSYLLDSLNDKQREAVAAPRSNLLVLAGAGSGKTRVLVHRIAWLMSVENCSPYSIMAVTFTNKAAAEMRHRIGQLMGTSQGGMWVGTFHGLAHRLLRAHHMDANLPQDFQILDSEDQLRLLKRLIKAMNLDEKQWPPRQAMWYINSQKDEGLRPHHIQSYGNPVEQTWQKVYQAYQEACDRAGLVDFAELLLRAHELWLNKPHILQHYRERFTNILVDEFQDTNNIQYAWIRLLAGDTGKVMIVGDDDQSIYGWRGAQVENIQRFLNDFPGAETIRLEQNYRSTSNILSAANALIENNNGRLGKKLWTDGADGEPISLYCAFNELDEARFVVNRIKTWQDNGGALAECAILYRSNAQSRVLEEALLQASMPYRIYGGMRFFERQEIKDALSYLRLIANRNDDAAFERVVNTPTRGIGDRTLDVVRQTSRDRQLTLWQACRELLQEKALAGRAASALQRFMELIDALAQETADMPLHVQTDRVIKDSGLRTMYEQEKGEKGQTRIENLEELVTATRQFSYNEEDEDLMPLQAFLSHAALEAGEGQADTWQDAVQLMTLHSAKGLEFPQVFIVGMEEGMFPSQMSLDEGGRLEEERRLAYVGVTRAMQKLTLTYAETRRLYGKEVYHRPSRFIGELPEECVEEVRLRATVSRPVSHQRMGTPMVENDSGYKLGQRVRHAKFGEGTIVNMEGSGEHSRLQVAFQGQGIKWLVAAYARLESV
UniProt P09053: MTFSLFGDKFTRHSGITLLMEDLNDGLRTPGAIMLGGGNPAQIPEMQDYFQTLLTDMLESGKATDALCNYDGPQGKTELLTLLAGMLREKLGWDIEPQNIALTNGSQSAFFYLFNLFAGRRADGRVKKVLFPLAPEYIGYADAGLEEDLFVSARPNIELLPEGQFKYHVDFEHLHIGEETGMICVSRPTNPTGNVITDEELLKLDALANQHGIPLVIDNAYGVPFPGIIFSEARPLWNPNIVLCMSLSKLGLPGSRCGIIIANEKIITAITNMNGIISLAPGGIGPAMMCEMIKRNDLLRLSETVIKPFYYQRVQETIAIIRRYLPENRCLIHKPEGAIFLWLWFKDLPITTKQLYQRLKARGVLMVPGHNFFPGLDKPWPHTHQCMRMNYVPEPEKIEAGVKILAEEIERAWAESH
UniProt P06966: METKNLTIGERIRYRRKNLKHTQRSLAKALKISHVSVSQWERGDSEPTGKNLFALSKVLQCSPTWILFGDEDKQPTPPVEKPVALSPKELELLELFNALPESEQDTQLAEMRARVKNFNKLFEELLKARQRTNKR
UniProt P05707: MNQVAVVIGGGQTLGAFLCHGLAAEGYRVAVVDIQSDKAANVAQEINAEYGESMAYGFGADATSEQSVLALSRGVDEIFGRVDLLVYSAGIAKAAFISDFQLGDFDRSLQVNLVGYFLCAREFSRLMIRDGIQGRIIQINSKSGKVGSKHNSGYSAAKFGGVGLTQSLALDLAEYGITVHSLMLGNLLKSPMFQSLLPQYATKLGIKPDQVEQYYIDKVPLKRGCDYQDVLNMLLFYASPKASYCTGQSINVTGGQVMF
UniProt P06715: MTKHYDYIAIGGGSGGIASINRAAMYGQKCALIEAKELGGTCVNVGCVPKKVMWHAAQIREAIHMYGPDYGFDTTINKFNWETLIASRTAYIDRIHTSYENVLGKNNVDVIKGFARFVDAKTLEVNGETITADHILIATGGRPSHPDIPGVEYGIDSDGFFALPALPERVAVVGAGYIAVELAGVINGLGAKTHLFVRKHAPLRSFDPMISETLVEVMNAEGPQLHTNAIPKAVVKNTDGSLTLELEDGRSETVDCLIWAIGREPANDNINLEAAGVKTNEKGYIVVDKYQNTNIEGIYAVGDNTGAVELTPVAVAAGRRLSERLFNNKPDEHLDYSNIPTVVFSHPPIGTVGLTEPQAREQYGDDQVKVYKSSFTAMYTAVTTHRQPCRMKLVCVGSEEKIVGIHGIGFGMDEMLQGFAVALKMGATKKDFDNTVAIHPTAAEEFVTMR
UniProt P02931: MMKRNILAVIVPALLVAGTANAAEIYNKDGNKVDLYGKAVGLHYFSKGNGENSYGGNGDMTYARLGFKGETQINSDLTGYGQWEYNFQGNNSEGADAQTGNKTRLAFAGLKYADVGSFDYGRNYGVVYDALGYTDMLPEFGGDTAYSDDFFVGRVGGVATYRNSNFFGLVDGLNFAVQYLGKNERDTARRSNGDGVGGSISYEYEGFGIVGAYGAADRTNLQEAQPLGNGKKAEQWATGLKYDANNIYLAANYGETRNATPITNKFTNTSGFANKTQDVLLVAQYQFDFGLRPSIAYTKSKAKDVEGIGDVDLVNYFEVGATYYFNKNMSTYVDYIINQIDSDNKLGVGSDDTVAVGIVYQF
UniProt P09127: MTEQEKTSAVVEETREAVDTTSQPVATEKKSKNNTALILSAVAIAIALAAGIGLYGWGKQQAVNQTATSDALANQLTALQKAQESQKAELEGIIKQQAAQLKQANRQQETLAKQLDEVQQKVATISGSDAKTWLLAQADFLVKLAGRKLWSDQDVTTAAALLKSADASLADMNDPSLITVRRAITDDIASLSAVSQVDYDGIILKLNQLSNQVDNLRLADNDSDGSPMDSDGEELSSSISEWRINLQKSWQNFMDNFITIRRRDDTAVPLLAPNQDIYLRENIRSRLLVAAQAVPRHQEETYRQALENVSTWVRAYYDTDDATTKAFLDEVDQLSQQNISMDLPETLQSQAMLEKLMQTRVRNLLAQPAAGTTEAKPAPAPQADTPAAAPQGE
UniProt P04825: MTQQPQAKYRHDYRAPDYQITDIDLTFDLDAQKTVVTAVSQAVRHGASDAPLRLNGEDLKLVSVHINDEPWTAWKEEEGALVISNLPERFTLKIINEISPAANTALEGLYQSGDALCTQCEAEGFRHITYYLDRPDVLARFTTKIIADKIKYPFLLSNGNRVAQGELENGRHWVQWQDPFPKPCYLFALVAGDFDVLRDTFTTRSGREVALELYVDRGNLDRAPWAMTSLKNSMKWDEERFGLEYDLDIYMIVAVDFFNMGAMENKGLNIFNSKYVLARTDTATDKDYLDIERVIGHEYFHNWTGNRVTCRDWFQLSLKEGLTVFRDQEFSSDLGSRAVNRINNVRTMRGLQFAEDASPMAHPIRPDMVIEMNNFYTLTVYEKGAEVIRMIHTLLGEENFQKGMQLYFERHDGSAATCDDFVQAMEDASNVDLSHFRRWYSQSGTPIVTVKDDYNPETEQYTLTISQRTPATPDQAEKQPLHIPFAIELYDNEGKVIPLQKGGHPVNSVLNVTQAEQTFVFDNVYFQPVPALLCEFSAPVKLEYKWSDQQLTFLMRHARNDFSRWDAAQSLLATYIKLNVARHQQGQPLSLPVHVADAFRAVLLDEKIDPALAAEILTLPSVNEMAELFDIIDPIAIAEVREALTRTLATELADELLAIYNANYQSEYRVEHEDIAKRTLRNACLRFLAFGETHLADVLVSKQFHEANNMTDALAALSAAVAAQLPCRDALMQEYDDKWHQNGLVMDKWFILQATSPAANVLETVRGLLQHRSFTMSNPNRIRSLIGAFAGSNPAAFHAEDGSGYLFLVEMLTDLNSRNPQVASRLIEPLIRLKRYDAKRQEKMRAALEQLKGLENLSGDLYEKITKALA
UniProt P00805: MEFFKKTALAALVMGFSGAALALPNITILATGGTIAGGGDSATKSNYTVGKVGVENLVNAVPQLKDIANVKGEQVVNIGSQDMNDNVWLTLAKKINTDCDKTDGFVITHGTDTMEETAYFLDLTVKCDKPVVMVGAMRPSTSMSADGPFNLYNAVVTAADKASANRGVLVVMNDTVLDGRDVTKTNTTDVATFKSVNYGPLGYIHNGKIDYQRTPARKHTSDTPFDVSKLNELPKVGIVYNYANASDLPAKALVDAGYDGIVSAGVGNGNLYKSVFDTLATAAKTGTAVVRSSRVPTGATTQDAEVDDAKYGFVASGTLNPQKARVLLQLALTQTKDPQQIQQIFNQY
UniProt P09153: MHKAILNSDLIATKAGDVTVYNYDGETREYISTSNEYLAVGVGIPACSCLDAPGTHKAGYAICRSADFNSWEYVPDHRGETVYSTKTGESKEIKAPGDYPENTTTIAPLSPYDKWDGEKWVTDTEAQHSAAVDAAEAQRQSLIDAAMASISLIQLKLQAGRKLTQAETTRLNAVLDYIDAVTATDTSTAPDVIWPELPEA
UniProt P09835: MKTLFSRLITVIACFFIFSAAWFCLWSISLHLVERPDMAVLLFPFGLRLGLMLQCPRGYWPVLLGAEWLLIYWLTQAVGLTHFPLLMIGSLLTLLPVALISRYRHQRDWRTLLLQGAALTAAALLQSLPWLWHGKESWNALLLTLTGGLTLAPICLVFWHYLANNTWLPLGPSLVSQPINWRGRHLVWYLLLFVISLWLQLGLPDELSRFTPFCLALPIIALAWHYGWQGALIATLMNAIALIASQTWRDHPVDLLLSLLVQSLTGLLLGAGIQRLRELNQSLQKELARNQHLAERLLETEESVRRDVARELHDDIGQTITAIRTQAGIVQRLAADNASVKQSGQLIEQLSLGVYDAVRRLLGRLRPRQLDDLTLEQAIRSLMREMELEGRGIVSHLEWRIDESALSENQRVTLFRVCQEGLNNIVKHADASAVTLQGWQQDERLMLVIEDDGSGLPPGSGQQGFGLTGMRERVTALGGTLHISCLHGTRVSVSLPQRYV
UniProt P09373: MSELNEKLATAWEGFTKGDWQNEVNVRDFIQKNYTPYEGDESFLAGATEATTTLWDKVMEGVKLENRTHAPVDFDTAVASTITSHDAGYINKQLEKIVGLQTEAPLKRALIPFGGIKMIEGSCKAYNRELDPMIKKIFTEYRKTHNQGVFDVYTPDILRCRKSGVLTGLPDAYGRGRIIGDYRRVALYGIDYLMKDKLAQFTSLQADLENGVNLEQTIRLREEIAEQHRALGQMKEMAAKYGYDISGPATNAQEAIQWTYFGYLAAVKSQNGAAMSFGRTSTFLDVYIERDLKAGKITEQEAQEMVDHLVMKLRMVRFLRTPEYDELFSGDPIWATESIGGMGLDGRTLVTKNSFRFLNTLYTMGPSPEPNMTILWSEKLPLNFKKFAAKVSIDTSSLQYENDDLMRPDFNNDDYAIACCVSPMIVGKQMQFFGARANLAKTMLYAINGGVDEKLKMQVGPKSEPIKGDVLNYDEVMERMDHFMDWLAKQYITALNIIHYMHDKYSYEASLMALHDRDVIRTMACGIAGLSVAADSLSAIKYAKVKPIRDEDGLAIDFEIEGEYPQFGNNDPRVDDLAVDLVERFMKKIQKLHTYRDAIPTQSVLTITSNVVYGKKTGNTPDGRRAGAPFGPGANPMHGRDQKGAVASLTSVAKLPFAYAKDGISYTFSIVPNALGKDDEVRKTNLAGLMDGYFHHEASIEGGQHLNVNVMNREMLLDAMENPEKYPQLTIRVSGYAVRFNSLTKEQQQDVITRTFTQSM
UniProt P06720: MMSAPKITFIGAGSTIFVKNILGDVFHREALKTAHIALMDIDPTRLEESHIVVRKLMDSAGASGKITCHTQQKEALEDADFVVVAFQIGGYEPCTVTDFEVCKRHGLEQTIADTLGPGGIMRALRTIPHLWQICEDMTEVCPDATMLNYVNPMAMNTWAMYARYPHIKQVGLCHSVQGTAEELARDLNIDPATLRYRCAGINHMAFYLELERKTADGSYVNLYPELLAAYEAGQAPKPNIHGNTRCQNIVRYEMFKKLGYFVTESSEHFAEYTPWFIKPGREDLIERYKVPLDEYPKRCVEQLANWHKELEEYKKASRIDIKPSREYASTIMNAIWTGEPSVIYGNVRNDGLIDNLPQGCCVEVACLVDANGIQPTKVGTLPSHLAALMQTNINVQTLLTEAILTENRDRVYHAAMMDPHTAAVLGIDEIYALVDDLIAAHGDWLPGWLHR

The other results are listed elsewhere or left out. Most entries show no effect beyond the scatter of the controls.

Compound in the test: CC1(C)S[C@@H]2[C@H](NC(=O)[C@H](N)c3ccccc3)C(=O)N2[C@H]1C(=O)O [ampicillin]
Nature of the test: log2 fold change of tryptic peptide abundance, ligand vs vehicle (limited proteolysis) (log2 ratio); higher = more trypsin-susceptible (destabilized). The settings on record: ligand concentration: 10 uM; sample: E. coli crude lysate.
With “UniProt P0A698 (peptide sequence: NINLVIPR, peptide start residue: 16)”, the log2 fold change was -0.192. The same measure for “UniProt P06129 (peptide sequence: WQSTSVNDVLR, peptide start residue: 57)”: 0.206; for “UniProt P06974 (peptide sequence: EFTHTEQR, peptide start residue: 145)”: -0.632. The figure for “UniProt P08200 (peptide sequence: DSVTLVHK, peptide start residue: 223)” is 0.18. The same measure for “UniProt P09831 (peptide sequence: ILHSAETDDDLK, peptide start residue: 406)”: -0.224; for “UniProt P06999 (peptide sequence: ELSALVNR, peptide start residue: 190)”: -0.125.

In the case of “UniProt P02932 (peptide sequence: DGNKLDVYGK, peptide start residue: 28)”, the log2 fold change turned out to be 0.263. The same measure for “UniProt P00960 (peptide sequence: ELGPEPMAAAYVQPSR, peptide start residue: 48)”: -0.535. Consider “UniProt P05052 (peptide sequence: LRDEGTSFTEILRDTR, peptide start residue: 173)”, for which the log2 fold change is -1.01.

In the case of “UniProt P02929 (peptide sequence: KVQEQPKR, peptide start residue: 105)”, the log2 fold change came out at 0.24.

“UniProt P00561 (peptide sequence: HVLHGISLLGQCPDSINAALICR, peptide start residue: 103)”: the log2 fold change worked out at 0.0798. The same measure for “UniProt P03018 (peptide sequence: IGQLMGTSQGGMWVGTFHGLAHR, peptide start residue: 74)”: 0.246; for “UniProt P00954 (peptide sequence: NDEAFLQQVMK, peptide start residue: 297)”: 0.192; for “UniProt P07821 (peptide sequence: YCDYLVALR, peptide start residue: 214)”: -0.198. The same measure for “UniProt P03007 (peptide sequence: VTDSLAVAR, peptide start residue: 127)”: -0.29; for “UniProt P09053 (peptide sequence: HSGITLLMEDLNDGLR, peptide start residue: 13)”: 0.198. The same measure for “UniProt P09147 (peptide sequence: ACGKPVNYHFAPR, peptide start residue: 279)”: 0.125. “UniProt P06966 (peptide sequence: ISHVSVSQWER, peptide start residue: 32)”: the log2 fold change was 0.0701. The same measure for “UniProt P05707 (peptide sequence: LGIKPDQVEQYYIDKVPLK, peptide start residue: 204)”: 0.563.

In the case of “UniProt P06715 (peptide sequence: LVCVGSEEK, peptide start residue: 393)”, the log2 fold change came to 0.72.

Turning to “UniProt P02931 (peptide sequence: DGNKVDLYGK, peptide start residue: 29)”, the log2 fold change was 0.201. Take “UniProt P09127 (peptide sequence: SADASLADMNDPSLITVRR, peptide start residue: 164)”: the log2 fold change was -0.426. The figure for “UniProt P04825 (peptide sequence: DQEFSSDLGSR, peptide start residue: 327)” is -0.12.

“UniProt P00805 (peptide sequence: KHTSDTPFDVSKLNELPK, peptide start residue: 218)”: the log2 fold change was -0.184.

Consider “UniProt P09169 (peptide sequence: LGLMAGYQESR, peptide start residue: 148)”, for which the log2 fold change was -0.129. The same measure for “UniProt P06134 (peptide sequence: CLVAESER, peptide start residue: 201)”: -0.307; for “UniProt P07021 (peptide sequence: SNLTTQGLGK, peptide start residue: 125)”: 0.287; for “UniProt P06136 (peptide sequence: IHLVEYVPIAR, peptide start residue: 121)”: -0.273. For “UniProt P09153 (peptide sequence: AILNSDLIATK, peptide start residue: 4)”, the log2 fold change was determined as 0.326.

Take “UniProt P09835 (peptide sequence: ELHDDIGQTITAIR, peptide start residue: 311)”: the log2 fold change amounted to 0.164. The same measure for “UniProt P09373 (peptide sequence: GAVASLTSVAK, peptide start residue: 644)”: -0.22; for “UniProt P06720 (peptide sequence: YKVPLDEYPK, peptide start residue: 288)”: -0.218. The figure for “UniProt P07862 (peptide sequence: IAVLLGGTSAER, peptide start residue: 5)” is 0.0665; for “UniProt P09099 (peptide sequence: LAQIAANPEK, peptide start residue: 431)” it is -0.287; for “UniProt P06610 (peptide sequence: IEVNGEGRHPLYQK, peptide start residue: 97)” it is 0.0683.
